Results taken from article PMC10979580.
These are yes or no findings as the source states them, for the method shown. In cells and extracts the contact can be indirect. A yes stands for co-enrichment or nearness to the bait. Other partners may have been found. Where a sequence is shown, tags or fusion partners need not be part of it.

Sequences of proteins named here, by UniProt entry; tags and fusion partners are left off. Residues count along the entry.
UniProt P01903, residues 26-254: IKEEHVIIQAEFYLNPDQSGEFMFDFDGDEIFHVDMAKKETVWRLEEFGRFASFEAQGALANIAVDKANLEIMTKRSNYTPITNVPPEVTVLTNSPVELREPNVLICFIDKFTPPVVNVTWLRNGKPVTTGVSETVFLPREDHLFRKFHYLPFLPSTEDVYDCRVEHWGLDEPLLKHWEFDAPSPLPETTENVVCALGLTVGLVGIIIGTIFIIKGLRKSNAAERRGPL

Target: T1, GFP-tagged VISTA (V-domain Ig suppressor of T cell activation) (UniProt Q9H7M9)
T1 sequence: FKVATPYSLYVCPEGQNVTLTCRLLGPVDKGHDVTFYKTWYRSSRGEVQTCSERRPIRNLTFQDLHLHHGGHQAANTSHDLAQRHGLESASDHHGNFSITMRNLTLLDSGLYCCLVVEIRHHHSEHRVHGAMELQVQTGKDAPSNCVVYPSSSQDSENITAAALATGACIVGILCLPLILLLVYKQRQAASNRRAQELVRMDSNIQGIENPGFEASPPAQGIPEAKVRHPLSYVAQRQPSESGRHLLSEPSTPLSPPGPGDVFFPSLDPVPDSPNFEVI
Assay: affinity purification with mass spectrometry; lysate of HL60 cells expressing VISTA-GFP (150 mM NaCl, 50 mM Tris pH 7.2, 1% NP-40, 0.1% SDS), pre-cleared, GFP-beads 1 h at 4 °C, washed three times; mass spectrometry; proteins found exclusively with VISTA-GFP

Substance | binding
HLA-B (from UniProt P01889 25-362) | binds
HLA-DQA (human (endogenous in HL60)) | binds
HLA-DRA (from UniProt P01903 26-254) | binds
HLA-DRB (human (endogenous in HL60)) | binds
